PubChem BioAssay AID1259308 – NCATS | 2017
Test: 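Knock-downs that increase output of a recombinant reporter protein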 (primary screen). System: human HEK293 embryonic kidney cells stably expressing firefly luciferase (HEK-CMV-Luc2-Hygro). Reagents: single siRNA against human genes, 0.8 pmol siRNA per well. Timing: 72 h. Measured: 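Reporter luminescence and viable-cell signal on separate replicate plates, given as percent of non-targeting control and median/MAD z-scores, plus per-cell luciferase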. Direction: total luciferase, z-score and total luciferase, % of control: higher = more reporter protein produced; luciferase per cell, z-score: higher = more reporter output per viable cell; viable cells, % of control: higher = more viable cells. Call rule: 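An siRNA counts as active if its total luciferase robust z-score exceeds 3; genes with two or more such siRNAs out of three were retested with fresh siRNAs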. Meaning of the calls: active = raised luciferase; inactive = no rise.
In all, the deposit lists about 59,000 reagents; this is an unselected part. In the full data, about 1,510 (2.6%) are marked active. 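Calls use total luciferase alone and ignore viability, so some active siRNAs may act by altering cell number.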 Reagents against one gene are numbered here.

gene symbol | reagent | total luciferase, z-score | total luciferase, % of control | luciferase per cell, z-score | viable cells, % of control | Outcome
C14orf39 (chromosome 14 open reading frame 39) | 1 | 0.274 | 87.3 | -0.0231 | 98.2 | inactive
C14orf39 (chromosome 14 open reading frame 39) | 2 | -0.304 | 75.8 | -0.667 | 101 | inactive
C14orf39 (chromosome 14 open reading frame 39) | 3 | 0.619 | 94.2 | 0.0077 | 105 | inactive
KCNJ15 (potassium inwardly rectifying channel subfamily J member 15) | 1 | -0.0765 | 80.4 | -0.142 | 93.2 | inactive
KCNJ15 (potassium inwardly rectifying channel subfamily J member 15) | 2 | -1.29 | 56.2 | -1.06 | 83.1 | inactive
KCNJ15 (potassium inwardly rectifying channel subfamily J member 15) | 3 | -1.63 | 49.5 | -1.4 | 80 | inactive
NDST1 (N-deacetylase and N-sulfotransferase 1) | 1 | 1.47 | 111 | 0.774 | 101 | inactive
NDST1 (N-deacetylase and N-sulfotransferase 1) | 2 | 0.174 | 85.3 | 0.695 | 79.4 | inactive
NDST1 (N-deacetylase and N-sulfotransferase 1) | 3 | -0.106 | 79.8 | -0.0632 | 90.6 | inactive
CRELD2 (CRELD disulfide isomerase 2) | 1 | 0.255 | 87 | 0.0216 | 96.6 | inactive
CRELD2 (CRELD disulfide isomerase 2) | 2 | -0.145 | 79 | -0.371 | 97.4 | inactive
CRELD2 (CRELD disulfide isomerase 2) | 3 | -0.429 | 73.4 | -0.718 | 99 | inactive
KRT33A (keratin 33A) | 1 | 0.147 | 84.8 | -0.0522 | 96.1 | inactive
KRT33A (keratin 33A) | 2 | 1.32 | 108 | 0.602 | 103 | inactive
KRT33A (keratin 33A) | 3 | 0.133 | 84.5 | -0.0786 | 96.4 | inactive
ACVR1 (activin A receptor type 1) | 1 | 0.352 | 88.9 | -0.0756 | 101 | inactive
ACVR1 (activin A receptor type 1) | 2 | 2.57 | 133 | 1.31 | 105 | inactive
ACVR1 (activin A receptor type 1) | 3 | 0.401 | 89.9 | -0.423 | 112 | inactive
OR5B2 (olfactory receptor family 5 subfamily B member 2) | 1 | -0.0408 | 81.1 | 0.726 | 74.8 | inactive
OR5B2 (olfactory receptor family 5 subfamily B member 2) | 2 | 0.865 | 99.1 | 0.9 | 87.4 | inactive
OR5B2 (olfactory receptor family 5 subfamily B member 2) | 3 | -1.76 | 46.8 | -0.976 | 67.6 | inactive
SCAMP5 | 1 | -0.998 | 62 | -0.156 | 72.2 | inactive
SCAMP5 | 2 | -0.205 | 77.8 | -0.183 | 91.2 | inactive
SCAMP5 | 3 | 0.369 | 89.2 | 0.52 | 87 | inactive
ONECUT3 (one cut homeobox 3) | 1 | 1.85 | 119 | 1.67 | 85.4 | inactive
ONECUT3 (one cut homeobox 3) | 2 | -0.762 | 66.7 | -0.483 | 84.7 | inactive
ONECUT3 (one cut homeobox 3) | 3 | 2.1 | 124 | 2.21 | 77.3 | inactive
KLHL14 (kelch like family member 14) | 1 | -0.246 | 77 | -0.225 | 91.3 | inactive
KLHL14 (kelch like family member 14) | 2 | 3.1 | 143 | 4.25 | 52.4 | active
KLHL14 (kelch like family member 14) | 3 | -0.251 | 76.9 | -0.433 | 96.3 | inactive
ST3GAL1 (ST3 beta-galactoside alpha-2,3-sialyltransferase 1) | 1 | -0.21 | 77.7 | -0.109 | 89.4 | inactive
ST3GAL1 (ST3 beta-galactoside alpha-2,3-sialyltransferase 1) | 2 | 0.516 | 92.1 | 1.1 | 77 | inactive
ST3GAL1 (ST3 beta-galactoside alpha-2,3-sialyltransferase 1) | 3 | -1.16 | 58.9 | -0.878 | 82.9 | inactive
ZSCAN18 (zinc finger and SCAN domain containing 18) | 1 | 2.67 | 135 | 3.46 | 60.7 | inactive
ZSCAN18 (zinc finger and SCAN domain containing 18) | 2 | 0.419 | 90.2 | 0.496 | 88.5 | inactive
ZSCAN18 (zinc finger and SCAN domain containing 18) | 3 | 0.4 | 89.8 | 0.573 | 86.3 | inactive
IRF6 (interferon regulatory factor 6) | 1 | 0.776 | 97.3 | 0.791 | 88.3 | inactive
IRF6 (interferon regulatory factor 6) | 2 | -0.323 | 75.5 | -0.196 | 88.8 | inactive
IRF6 (interferon regulatory factor 6) | 3 | 0.859 | 99 | 2.11 | 63.5 | inactive
ABCC6P1 (ATP binding cassette subfamily C member 6 pseudogene 1) | 1 | -0.518 | 71.6 | 0.495 | 70.2 | inactive
ABCC6P1 (ATP binding cassette subfamily C member 6 pseudogene 1) | 2 | 1.82 | 118 | 1.36 | 92.2 | inactive
ABCC6P1 (ATP binding cassette subfamily C member 6 pseudogene 1) | 3 | 2.47 | 131 | 1.11 | 109 | inactive
THAP12 (THAP domain containing 12) | 1 | 0.318 | 88.2 | -0.499 | 112 | inactive
THAP12 (THAP domain containing 12) | 2 | -0.21 | 77.7 | -1 | 113 | inactive
THAP12 (THAP domain containing 12) | 3 | -0.294 | 76 | 0.381 | 76.9 | inactive
SLC17A8 | 1 | -1.72 | 47.7 | -2.11 | 92.9 | inactive
SLC17A8 | 2 | -0.831 | 65.4 | -1.28 | 102 | inactive
SLC17A8 | 3 | -0.261 | 76.7 | -0.377 | 94.6 | inactive
PRKACG (protein kinase cAMP-activated catalytic subunit gamma) | 1 | 2.16 | 125 | 2.34 | 75.3 | inactive
PRKACG (protein kinase cAMP-activated catalytic subunit gamma) | 2 | 1.26 | 107 | 1.15 | 88.2 | inactive
PRKACG (protein kinase cAMP-activated catalytic subunit gamma) | 3 | 0.722 | 96.2 | 1.2 | 78.4 | inactive
EED (embryonic ectoderm development) | 1 | -0.743 | 67.1 | -0.829 | 93.3 | inactive
EED (embryonic ectoderm development) | 2 | 0.0375 | 82.6 | 0.131 | 89.2 | inactive
EED (embryonic ectoderm development) | 3 | 0.639 | 94.6 | 0.856 | 84.4 | inactive
CSAD (cysteine sulfinic acid decarboxylase) | 1 | -0.142 | 79.1 | -0.674 | 106 | inactive
CSAD (cysteine sulfinic acid decarboxylase) | 2 | 0.0707 | 83.3 | 0.0341 | 92.2 | inactive
CSAD (cysteine sulfinic acid decarboxylase) | 3 | -0.884 | 64.3 | -1.06 | 95 | inactive
TTC36 (tetratricopeptide repeat domain 36) | 1 | 0.744 | 96.7 | 0.143 | 104 | inactive
TTC36 (tetratricopeptide repeat domain 36) | 2 | -0.00452 | 81.8 | 0.69 | 76.2 | inactive
TTC36 (tetratricopeptide repeat domain 36) | 3 | 0.475 | 91.3 | 1.27 | 73 | inactive
FKTN (fukutin) | 1 | 0.981 | 101 | 0.773 | 92.4 | inactive
FKTN (fukutin) | 2 | 0.581 | 93.4 | 0.743 | 85.9 | inactive
FKTN (fukutin) | 3 | -1.15 | 59 | -0.445 | 74.1 | inactive
TXNRD2 (thioredoxin reductase 2) | 1 | 0.734 | 96.5 | 0.949 | 84 | inactive
TXNRD2 (thioredoxin reductase 2) | 2 | 1.06 | 103 | 0.634 | 97.3 | inactive
TXNRD2 (thioredoxin reductase 2) | 3 | -0.0603 | 80.7 | -0.125 | 93.2 | inactive
KPNA2 (karyopherin subunit alpha 2) | 1 | 0.518 | 92.2 | 0.308 | 95 | inactive
KPNA2 (karyopherin subunit alpha 2) | 2 | 0.155 | 85 | 0.653 | 79.9 | inactive
KPNA2 (karyopherin subunit alpha 2) | 3 | 1.21 | 106 | 0.141 | 114 | inactive
SPATA31D1 (SPATA31 subfamily D member 1) | 1 | 0.114 | 84.2 | 1.48 | 63.8 | inactive
SPATA31D1 (SPATA31 subfamily D member 1) | 2 | -0.0157 | 81.6 | -0.476 | 103 | inactive
SPATA31D1 (SPATA31 subfamily D member 1) | 3 | -0.189 | 78.1 | -1.1 | 117 | inactive
DUSP29 (dual specificity phosphatase 29) | 1 | -0.257 | 76.8 | -0.302 | 92.9 | inactive
DUSP29 (dual specificity phosphatase 29) | 2 | -1.28 | 56.4 | -1.81 | 101 | inactive
DUSP29 (dual specificity phosphatase 29) | 3 | -0.429 | 73.4 | -0.697 | 98.5 | inactive

Sorted by “viable cells, % of control” (ascending): some entries from above.
gene symbol | reagent | total luciferase, z-score | total luciferase, % of control | luciferase per cell, z-score | viable cells, % of control | Outcome
OR5B2 (olfactory receptor family 5 subfamily B member 2) | 3 | -1.76 | 46.8 | -0.976 | 67.6 | inactive
SCAMP5 | 1 | -0.998 | 62 | -0.156 | 72.2 | inactive
OR5B2 (olfactory receptor family 5 subfamily B member 2) | 1 | -0.0408 | 81.1 | 0.726 | 74.8 | inactive
SCAMP5 | 3 | 0.369 | 89.2 | 0.52 | 87 | inactive
OR5B2 (olfactory receptor family 5 subfamily B member 2) | 2 | 0.865 | 99.1 | 0.9 | 87.4 | inactive
SCAMP5 | 2 | -0.205 | 77.8 | -0.183 | 91.2 | inactive
KRT33A (keratin 33A) | 3 | 0.133 | 84.5 | -0.0786 | 96.4 | inactive
ACVR1 (activin A receptor type 1) | 1 | 0.352 | 88.9 | -0.0756 | 101 | inactive
ACVR1 (activin A receptor type 1) | 2 | 2.57 | 133 | 1.31 | 105 | inactive
ACVR1 (activin A receptor type 1) | 3 | 0.401 | 89.9 | -0.423 | 112 | inactive
